Reference: paper PMC4423959, “The Nucleoid Occlusion SlmA Protein Accelerates the Disassembly of the FtsZ Protein Polymers without Affecting Their GTPase Activity” (PLoS ONE, 2015)
The exact form of at least one protein or probe is not confirmed. Weaker means in comparison with the reference protein, sequence or condition of that experiment. Where a protein sequence is shown, tags need not be part of it.

Biological target: T1, SlmA (UniProt P0C093)
T1 sequence (looked up, limits assumed): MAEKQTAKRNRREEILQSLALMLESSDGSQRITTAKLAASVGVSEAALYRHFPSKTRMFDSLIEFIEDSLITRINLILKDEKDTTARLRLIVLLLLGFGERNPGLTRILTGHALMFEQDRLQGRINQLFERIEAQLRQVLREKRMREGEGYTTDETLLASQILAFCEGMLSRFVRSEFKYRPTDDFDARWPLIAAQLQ
Assay: fluorescence anisotropy
Conditions: 500 mM KCl, no saturation at 4 uM SlmA monomer; 50 mM Tris-HCl, 300 mM KCl, 2 mM MgCl2, pH 7.5, 20 C; 10 nM labeled SBS in SlmA anisotropy titrations; recombinant protein; protein details: SUMO tag cleaved off

“TCAACGTTAGTGACCATTTACTTACTTTTG (double strand) [SBS17]”: binds more weakly.
